Reference: patent publication US20070259856A1, “Method for Activating Trpv4 Channel Receptors by Agonists” (priority 2004, published 2007)
At least one compound was matched to its structure with a doubt left.

Test system: bovine articular cartilage explants
Assay: IL-1 induced collagen degradation (hydroxyproline) in bovine articular cartilage explants
Format: cell-based
Protocol: IL-1 stimulates collagen degradation in bovine articular cartilage explants after extended (−2-3 weeks) exposure to IL-1. Collagen breakdown was evaluated by measuring the levels of hydroxyproline, a major component of hydrolyzed collagen fibrils, using a colorimetric assay that is understood in the art. Bovine articular cartilage was stimulated with IL-1 for 18 days, in the absence or presence of Formula Ib or Formula IId (both at 1 uM). Media was removed and replaced every 2-4 days with fresh IL-1 and compound through day 18. As has been shown previously, aggrecan degradation precedes collagen breakdown in IL-1-stimulated bovine cartilage explants. Once aggrecan depletion had been achieved by day 10, media were analyzed for collagen breakdown using the hydroxyproline assay.

In the case of `CC(C)C[C@H](NC(=O)c1cc2ccccc2n1C)C(=O)N[C@@H]1CCCN(S(=O)(=O)c2ccccc2C#N)CC1` [Formula Ib, N-{(1S)-1-[({(4R)-1-[(2-cyanophenyl)sulfonyl]hexahydro-1H-azepin-4-yl}amino)carbonyl]-3-methylbutyl}-methyl-1H-indole-2-carboxamide], the “block of IL-1-induced collagen degradation” value is reported as “completely blocked”.
